Results taken from publication PMC9278747.
These are yes or no findings as the source states them, for the method shown. In cells and extracts the contact can be indirect. Here binding means that the protein was enriched with, or labelled near, the bait; the list need not be complete.

By UniProt entry, the sequences of proteins in these tests, tags left out. Where a name states a change or a piece, a line headed by the entry shows the natural chain unless it says otherwise.
UniProt Q03823: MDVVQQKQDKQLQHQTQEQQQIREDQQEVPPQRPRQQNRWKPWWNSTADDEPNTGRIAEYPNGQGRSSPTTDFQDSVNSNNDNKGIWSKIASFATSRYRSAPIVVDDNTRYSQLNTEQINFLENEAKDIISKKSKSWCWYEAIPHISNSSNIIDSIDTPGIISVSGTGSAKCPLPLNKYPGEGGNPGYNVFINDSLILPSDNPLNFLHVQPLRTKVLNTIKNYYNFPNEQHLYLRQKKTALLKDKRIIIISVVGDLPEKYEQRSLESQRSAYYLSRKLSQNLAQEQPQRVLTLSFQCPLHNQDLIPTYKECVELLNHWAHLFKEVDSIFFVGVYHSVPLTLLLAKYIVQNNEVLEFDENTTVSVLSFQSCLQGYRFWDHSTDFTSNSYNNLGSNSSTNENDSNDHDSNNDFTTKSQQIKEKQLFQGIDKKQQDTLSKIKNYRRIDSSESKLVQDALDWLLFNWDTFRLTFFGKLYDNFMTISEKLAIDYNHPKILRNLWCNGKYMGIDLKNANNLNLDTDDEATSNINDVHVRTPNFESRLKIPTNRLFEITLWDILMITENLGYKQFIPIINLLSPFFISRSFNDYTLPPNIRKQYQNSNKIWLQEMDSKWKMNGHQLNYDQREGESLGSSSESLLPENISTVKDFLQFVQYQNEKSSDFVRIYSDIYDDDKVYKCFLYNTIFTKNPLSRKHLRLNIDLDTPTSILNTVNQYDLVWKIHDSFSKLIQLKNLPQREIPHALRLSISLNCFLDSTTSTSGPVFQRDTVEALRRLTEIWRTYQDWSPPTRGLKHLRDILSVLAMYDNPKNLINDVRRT

How the values were obtained:
[1] = molecular target: OtUBD resin (Cys-OtUBD or Cys-His6-OtUBD covalently linked to SulfoLink resin) (Orientia tsutsugamushi) (UniProt B3CVM3); assay: affinity purification with mass spectrometry; OtUBD pulldown samples of yeast, LC-MS/MS, GG-peptide assignment validated by hand; native or denaturing condition not told; only the target purified
[2] = molecular target: OtUBD resin (Cys-OtUBD or Cys-His6-OtUBD covalently linked to SulfoLink resin) (Orientia tsutsugamushi) (UniProt B3CVM3); assay: affinity purification with mass spectrometry; OtUBD resin pulldowns of urea-denatured yeast lysates (the 'ubiquitylome'), low pH elution, trypsin digestion, LC-MS/MS; control SulfoLink resin without OtUBD in parallel; only the target purified

Molecule: YMR160W with a GG remnant on T534 (nonlysine ubiquitylation site) (from UniProt Q03823 1-816; P0CG63 1-76)
- binding [1]: binds

B1: Rtt101 (yeast cullin) as found in the OtUBD-defined ubiquitylome (protein, UniProt P47050 1-842)
chain: MINESVSKREGFHESISRETSASNALGLYNKFNDERNPRYRTMIAELHEFFHLTLAETITETDVKELECNKEKAAKFRKLMPKMLNNCRELTQRKSYIPYNSEFNGNDEKQKKFQLLHQHQIVLSFQEFCDELAKLIIDAHVLSFLTRCDYSYEIIPKNWTSFYKLFQYVMGAVGPIISYVPVNYPMIRKELGFETLTIFQYYDSKLFECMKSHFGREFSTLVSATIHHYIHMFPITNTMLEKEVPMLRIMSNCNFSIEGLSPKDFYMKTLRQYYCEESNLRPRLETFKNFKVLLTRNALLASLFSPEWVSDANDLFISHLLLNKKSISEYIEIGKDTYDEEKERYFKTETHFSLLMFRNAFEAKNMLSKFKEFCDDAVSEKLKAAYGSNHDTERLFDEVVQLANVDHLKIYSDSIEYHLCNLLGSTSKAIEQYVKYFESHLFIIVRKIKTTKKDLPRDMKIKYLNENLPILRLKFVNLPTFPNFFERSIFRKTILQSDQNSSFIKDILPVYKDSLMELFKQRIITNVSQEDEMRYRDQYQPYLSQFFQPVEVMADLRIKYASFLSFYENIEAAVKFGKTYNENNSKSFFPLIFDRERIPKVFQQSNEVKKNFVLPQEMDDTWNQFLRNYHEQNKVEDSDASKKELYPMWNLHHCEVESPYIIQDGTNLIFELTLFQTCVLTLFNESDHLTLQVISEQTKLAYKDLALVLKSFCNYKILTRDIDNTYSINESFKPDMKKVKNGKLRVVLPRTASLQSSNTGGERTSSAHHEGSNSQWTQELLKACITRSVKSERNGLDYDHLFETVKQQIKGFSVGEFKDALAKLLRDKFITRDESTATYKY
- binding [2]: binds

B2: Rub1 (yeast Nedd8) (protein, UniProt Q03919 1-77)
chain: MIVKVKTLTGKEISVELKESDLVYHIKELLEEKEGIPPSQQRLIFQGKQIDDKLTVTDAHLVEGMQLHLVLTLRGGN
- binding [2]: binds

B3: Cdc53 (yeast cullin) as found in the OtUBD-defined ubiquitylome (protein, UniProt Q12018 1-815)
chain: MSETLPRSDDLEATWNFIEPGINQILGNEKNQASTSKRVYKILSPTMYMEVYTAIYNYCVNKSRSSGHFSTDSRTGQSTILVGSEIYEKLKNYLKNYILNFKQSNSETFLQFYVKRWKRFTIGAIFLNHAFDYMNRYWVQKERSDGKRHIFDVNTLCLMTWKEVMFDPSKDVLINELLDQVTLGREGQIIQRSNISTAIKSLVALGIDPQDLKKLNLNVYIQVFEKPFLKKTQEYYTQYTNDYLEKHSVTEYIFEAHEIIKREEKAMTIYWDDHTKKPLSMALNKVLITDHIEKLENEFVVLLDARDIEKITSLYALIRRDFTLIPRMASVFENYVKKTGENEISSLLAMHKHNIMKNENANPKKLALMTAHSLSPKDYIKKLLEVHDIFSKIFNESFPDDIPLAKALDNACGAFININEFALPAGSPKSATSKTSEMLAKYSDILLKKATKPEVASDMSDEDIITIFKYLTDKDAFETHYRRLFAKRLIHGTSTSAEDEENIIQRLQAANSMEYTGKITKMFQDIRLSKILEDDFAVALKNEPDYSKAKYPDLQPFVLAENMWPFSYQEVEFKLPKELVPSHEKLKESYSQKHNGRILKWLWPLCRGELKADIGKPGRMPFNFTVTLFQMAILLLYNDADVLTLENIQEGTSLTIQHIAAAMVPFIKFKLIQQVPPGLDALVKPETQFKLSRPYKALKTNINFASGVKNDILQSLSGGGHDNHGNKLGNKRLTEDERIEKELNTERQIFLEACIVRIMKAKRNLPHTTLVNECIAQSHQRFNAKVSMVKRAIDSLIQKGYLQRGDDGESYAYLA
- binding [2]: binds

B4: Cul3 (yeast cullin) as found in the OtUBD-defined ubiquitylome (protein, UniProt P53202 1-744)
chain: MITNKKIKISVPEKLGLSEESFEESWETVKYAIDHIYSDDMADLSFEQVYKTIYTIVLNKKGPILYNRLKDYLIQKLALLRETIVKDNTHDYEFLGTMARLWEVQCHCFKITGDLMMYMDKVYCKPNRCMEVYDMCLDLFRIEILQKCSSSLISALISDIERIRNLGSVDSEHTSLWKVLIGMMETLHDNRDSFFLTDFEPVLISATEEYYNKAIDIELLTPIESLEKIRKLRQFESMLDSSFLNVDSHNKLKTVLENVLIWGKLSDIIEDLTHEAMVISNGKLLQEIYDLSSEEKYRVTVIESIKSYINKNAINIPFNEGNRKKGQNAITWSSEIVELYRSQHSFLESIDFGSVRLNNLTGDVSNAILGDVFSMYFSKEGALPSEYLSTYVDHCMKRTKEKDAEIVKIKQDLLDSTKLIGLLTEKDIFEKIYKKQLSRRLLQQRSLVEIEKWMVQMIKKVLGTFFTSKLEIMLRDISLSSEMYQAFQHSTINSIEYLSFAPQVLTRTSWPFQSTNPIDEGISLPPRMSQILAGFEGYYSLKYKERVLKWAHHLSVIEIGCQFNSGYYEISFSVYAGVIFLLFEDYEELTLGEIYELTHIPIDDVKSLVMSMSTIPRCKILKKSSSSGNMKFSVNYFFSSPNRKVKVPVIACPLPSQKSDNLATASSVDTYDNEIVMELSAIIVRIMKTEGKLSHQQLLERTTKRTQSRLSLTPSILKRSIQLLIEKEYIQRNADDPSYYHYLS
- binding [2]: binds
